Experimental findings from PMC12711061, “Far-infrared irradiation attenuates vessel contraction by activating SERCA2 through disruption of SERCA2 and PLN interaction” (PLOS One, 2025) are described below.

By UniProt entry, the sequences of proteins in these tests, tags left out. Where a name states a change or a piece, a line headed by the entry shows the natural chain unless it says otherwise. Chains listed by the source or under a name are the forms on record and can include a tag or linker.
YFP-tagged human SERCA2a (P16615, form named): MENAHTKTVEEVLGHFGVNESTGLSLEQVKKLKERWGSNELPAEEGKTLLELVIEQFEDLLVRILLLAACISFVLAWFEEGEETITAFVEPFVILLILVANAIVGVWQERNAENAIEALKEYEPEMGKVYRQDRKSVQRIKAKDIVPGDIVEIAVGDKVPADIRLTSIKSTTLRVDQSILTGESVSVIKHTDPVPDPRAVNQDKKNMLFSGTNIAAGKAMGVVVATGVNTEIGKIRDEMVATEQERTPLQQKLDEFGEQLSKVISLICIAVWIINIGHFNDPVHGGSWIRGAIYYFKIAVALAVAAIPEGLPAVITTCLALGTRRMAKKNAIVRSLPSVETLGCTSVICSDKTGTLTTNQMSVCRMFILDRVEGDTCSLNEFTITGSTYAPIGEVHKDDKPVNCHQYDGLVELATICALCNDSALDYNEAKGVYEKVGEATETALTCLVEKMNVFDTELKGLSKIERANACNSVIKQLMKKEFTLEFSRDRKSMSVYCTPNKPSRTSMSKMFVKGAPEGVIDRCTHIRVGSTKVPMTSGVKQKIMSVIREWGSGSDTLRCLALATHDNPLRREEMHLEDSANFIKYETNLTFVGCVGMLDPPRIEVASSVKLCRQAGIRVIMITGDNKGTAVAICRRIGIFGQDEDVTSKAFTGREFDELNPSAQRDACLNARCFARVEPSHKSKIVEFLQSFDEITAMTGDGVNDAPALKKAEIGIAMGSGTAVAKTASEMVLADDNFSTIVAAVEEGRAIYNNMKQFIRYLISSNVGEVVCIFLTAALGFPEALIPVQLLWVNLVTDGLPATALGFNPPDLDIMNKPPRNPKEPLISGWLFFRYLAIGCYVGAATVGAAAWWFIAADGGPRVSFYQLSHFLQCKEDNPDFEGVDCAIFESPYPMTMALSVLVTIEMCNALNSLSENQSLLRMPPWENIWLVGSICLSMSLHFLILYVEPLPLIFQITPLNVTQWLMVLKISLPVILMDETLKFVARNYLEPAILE
UniProt P26678: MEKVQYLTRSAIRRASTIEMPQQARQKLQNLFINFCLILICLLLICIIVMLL

Results are given in words; binding and its absence hold for the method and conditions named. Binding seen in cells or lysates may run through a third protein. Some results given as binding are weak or reduced against the parent protein; the word gives no strength.

The test addresses YFP-tagged human SERCA2a (human) (UniProt P16615). Briefly: FRET or BRET; HEK293T cells co-transfected with CFP-tagged PLN and YFP-tagged SERCA2a; microplate reader, excitation 480 nm, emission 530 nm, fluorescence normalised to total protein; cells kept 30 min at RT, irradiated with FIR ray 30 min at RT, or kept 30 min at 39°C.

As to “CFP-tagged human PLN (from UniProt P26678 1-52)”, the binding result is “binds”.
